# Primary screen of a compound library

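Cell assay of Leishmania donovani living inside macrophages; the read-out is not stated. Compounds at 30 µM. The record gives no direction; compounds that gave an IC50 in retests scored well above the rest, so higher reads as stronger inhibition. About 69,000 compounds were tested under these conditions; 1.5% (about 1,000) showed 50% or more at least once.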

Values are the deposited “Percent Effect”, in %.
How 0% and 100% were set is not recorded. Most values in the screen are low, and negative values occur.
Compounds were drawn at random from those tested, without regard to their results.
Two or more numbers in one place are separate tests of the same structure; such repeats can differ widely.

| SMILES | percent effect |
|---|---|
| `CC1(NC(=O)Cc2csc(NC(=O)c3ccccc3)n2)CCS(=O)(=O)C1` (configuration not stated) | 2.541% |
| `CCCn1nccc1-c1cc(C2CCN(S(C)(=O)=O)CC2)nc(C)n1` | 17.15% |
| `O=C(C1CCCC1)N1CCC(c2ncc3c(n2)CCNC3)C1` (configuration not stated) | -7.385% |
| `Cc1c(Cl)c(C(=O)NC(C)CN2CCOCC2)nn1C` (configuration not stated) | 5.491% |
| `Cc1cccc(C(=O)N2CCC3(CCN(c4cnn(C)c4)C3=O)C2)n1.O=C(O)C(F)(F)F` (configuration not stated) | 25.74% |
| `Cn1cc(NC(=O)c2ccccn2)cc(Br)c1=O` | 1.295% |
| `CC(C)c1nc(CN2CCN(C(=O)CN3CCOCC3)CC2)no1` | 7.004% |
| `CC(=O)NC1Cc2ccc(S(=O)(=O)NCCNc3ccccn3)cc2C1` (configuration not stated) | 9.41% |
| `O=C(O)c1cccnc1CN1CCCCC1CCc1ccccn1` (configuration not stated) | 27.22% |
| `CC(C)C(=O)N1CCN(Cc2cc(-c3ccncc3)nn2C)CC1` | -0.9141% |
| `Cc1cccc(C(=O)N2CCCN(Cc3cnn(C)c3)CC2)n1` | 9.47% |
| `Cc1cc(NC(=O)NCC(O)c2ccc(F)cc2)n(C)n1` (configuration not stated) | -9.595% |
| `Cn1nccc1C(=O)NCCN1CCC(O)(c2ccc(F)cc2)CC1` | 30.54% |
| `COc1ccccc1CNC1(CCO)CCOCC1` | -9.598% |
| `CCS(=O)(=O)N1CCc2ccc(NC(=O)Nc3ccccc3)cc21` | 14.09% |
| `COc1ccc(COCC(O)CNC(=O)c2cnc(C)cn2)cc1` (configuration not stated) | -4.671% |
| `COCCNC(=O)N1CCN(C(=O)c2nsc3ccc(C)cc23)CC1` | 20.57% and 5.103% |
| `CN1CC(Nc2ccc(Br)cc2C#N)CCC1=O` (configuration not stated) | 12.12% |
| `Cn1cc(C2(C)CN(c3ncccc3C#N)CCO2)cn1` (configuration not stated) | 5.457% |
| `O=C(O)C(F)(F)F.[H][C@@]12CCN(Cc3ccc(C)s3)C[C@]1(COCC(=O)N(C)C)CCO2` | 42.26% |
| `CCC(NC(=O)NCC(=O)Nc1ccc(F)cc1)c1ccncc1` (configuration not stated) | 6.706% |
| `CCn1cnnc1CNC(=O)c1cc(Cl)c(I)cc1OC` | 16.73% |
| `CC(C)CCC(=O)Nc1ccc2oc(=O)n(CCN(C)C)c2c1` | -2.011% |
| `COc1cc(OC)cc(-c2cc(CN)nc3ccnn23)c1.Cl` | 22.08% and -7.549% |
| `c1ccc2c(N3CCSCC3)cnnc2c1` | 15.05% |
| `O=C(CCCOc1ccccc1)N1CCCC1Cn1cccn1` (configuration not stated) | 4.168% |
| `CN(C)C(=O)CNS(=O)(=O)c1cc(Br)ccc1F` | 46.03% |
| `Cc1nc(CC(=O)N2CCC[C@H]2c2nc(C(C)C)no2)cs1` | 26.71% |
| `CC(=O)c1cnc(NCC2OCCc3ccccc32)nc1C` (configuration not stated) | 17.09% |
| `CN(CC(=O)NC1(C)CCS(=O)(=O)C1)Cc1ccc(Br)cc1` (configuration not stated) | -0.9039% |
| `O=C(O)C(F)(F)F.O=C(O)C(F)(F)F.[H][C@@]12CCN(Cc3nccs3)C[C@]1([H])O[C@@H](C(=O)Nc1cccnc1C)C2` | 10.85% |
| `CN(Cc1nc(CS(C)(=O)=O)no1)c1ccccc1` | 11.17% |
| `Cc1nn(C)c2nc(N(CCN(C)C)C3CCCC3)sc12` | -16.17% |
| `COc1ccc(F)c(CNC2CCCc3nc(N(C)C)ncc32)c1` (configuration not stated) | 34.48% |
| `COCCN1CCN(CCS(=O)(=O)c2cccc(OC)c2)CC1` | -4.261% |
| `Cc1nc(N(C)C)nc(NCCc2cnccn2)c1C` | 22.52% |
| `O=C(C1CC1)N1CC2(CCN(CC3CC3)CC2)c2cc(F)ccc21.O=C(O)C(F)(F)F` | 8.849% |
| `O=C(O)C(F)(F)F.O=C(O)C(F)(F)F.[H][C@@]12CN(C(=O)N(C)C)C[C@]1([H])OCCN2CCN(C)C` | -24.42% |
| `CCc1nnc(Nc2cc(C)nc(C3CCN(c4cnccn4)C3)n2)s1` (configuration not stated) | -34.12% |
| `Cc1nn(CCC(=O)NC(C(=O)O)c2c(C)n[nH]c2C)c(C)c1C` (configuration not stated) | 21.8% |
| `COc1ncccc1C(=O)Nc1cccc(C[S+](C)[O-])c1C` (configuration not stated) | 1.258% |
| `CN(CCc1cnn(C)c1)C(=O)C1COc2ccccc2C1` (configuration not stated) | 36.15% |
| `O[C@H]1CN(Cc2ccc3c(c2)OCCO3)CC[C@@]12CCCO2` | 22% and 22.83% |
| `CCN(CCC(=O)OC)C(=O)c1cc(F)cc2[nH]cnc12` | 28.02% |
| `Cc1cc(C)n(CC2CN(CC(=O)NCc3ccccn3)CCO2)n1` (configuration not stated) | 20.22% |
| `O=C(O)C(F)(F)F.O=C(O)C(F)(F)F.[H][C@@]12CCN(c3ncccn3)[C@]1([H])CC[C@H](C(=O)NC1CCN(C)CC1)O2` | 11.15% |
| `O=C(O)Cc1cccc(-n2ccnc2-c2ccc(F)c(Cl)c2)c1` | 12.25% |
| `O=C(O)C(F)(F)F.O=C1Nc2ccccc2C12CCN(Cc1cccs1)CC2` | 3.77% |
| `COCCO[C@H]1CCN(c2ccc(C)nn2)[C@H]1Cc1cnn(C)c1` | -6.239% |
| `CC(C)CS(=O)(=O)NC(=O)c1ccc2c(c1)ncn2C` | 27.49% |
| `CC(=O)NC[C@]1(O)CCN(C(=O)c2ccc3c(c2)CCC3)C[C@H]1O` | 15.55% and 23.71% |
| `Cc1nc(C)c(C)c(N2C[C@@H](CN3CCCN(C)CC3)[C@@H](CO)C2)n1` | 7.228% |
| `Cc1ccc(Oc2ncccc2CNS(=O)(=O)N2CCOCC2)cn1` | -27.49% |
| `CC(C)c1nc(CN2CCOC(Cn3cncn3)C2)no1` (configuration not stated) | 0.9351% |

Some entries from above, unchanged:

| SMILES | percent effect |
|---|---|
| `COCCN1CCN(CCS(=O)(=O)c2cccc(OC)c2)CC1` | -4.261% |
| `CN1CC(Nc2ccc(Br)cc2C#N)CCC1=O` (configuration not stated) | 12.12% |
| `O=C(O)C(F)(F)F.O=C(O)C(F)(F)F.[H][C@@]12CCN(Cc3nccs3)C[C@]1([H])O[C@@H](C(=O)Nc1cccnc1C)C2` | 10.85% |
| `CN(Cc1nc(CS(C)(=O)=O)no1)c1ccccc1` | 11.17% |

Measurements from “University of Dundee, Small-Polar-MMV Screening Library” (2021), ChEMBL document CHEMBL3988442.